Results reported in PMC6542935.
These are yes or no findings as the source states them, for the method shown. Binding calls can cover weak binding; strength is not graded here.

Sequences of proteins named here, by UniProt entry; tags and fusion partners are left off. A change or cut given only in a name is not applied to a line headed by its entry.
UniProt G3XKQ9: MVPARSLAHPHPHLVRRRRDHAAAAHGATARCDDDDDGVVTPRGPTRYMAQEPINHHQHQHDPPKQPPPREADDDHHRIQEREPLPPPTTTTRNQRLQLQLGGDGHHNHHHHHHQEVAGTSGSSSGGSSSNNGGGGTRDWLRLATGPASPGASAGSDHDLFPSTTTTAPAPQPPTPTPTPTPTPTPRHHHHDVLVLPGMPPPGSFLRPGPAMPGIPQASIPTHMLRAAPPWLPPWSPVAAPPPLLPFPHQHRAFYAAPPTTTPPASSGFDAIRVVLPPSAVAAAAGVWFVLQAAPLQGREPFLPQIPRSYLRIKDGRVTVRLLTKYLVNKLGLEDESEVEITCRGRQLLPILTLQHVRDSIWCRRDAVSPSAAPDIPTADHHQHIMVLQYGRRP

Target: LAX PANICLE 2 (rice (Oryza sativa)) (UniProt G3XKQ9)
Assay: two-hybrid; OsSPL7 as prey in pGAD-T7, LAX1 or LAX2 as bait in pGBK-T7; yeast on SD-LT and SD-LTAH media (Clontech system)

B1: OsSPL7 (protein, UniProt Q7XT42 1-360)
chain: MEGNGCGGSGATPRGVVGMHWAPVVTSPPSPQPPFLPPAPCRPDVQMQQQGGLTCLKLGKRPCFWGGDGAGQVAQGSGGGGGGGGGGSADQGKRKEKAATAVPVVPRCQVEGCDITLQGVKEYHRRHKVCEVHAKAPRVVVHGTEQRFCQQCSRFHVLAEFDDAKKSCRRRLAGHNERRRRSNASEAMARGSAHPHGMPVLGHGFPPYGLPTSSAGALSLLSSARATGPWLMPTPDISARSSAALDELIAENRAALLSWQFFSDRQPPPAGRPTGRSPGSETAGGWHAHLQARPPPPGAGGQHENQSGHVTLDLMQATTAAGGSGAPFRPVPARPPKEGGDAGCTSDAWTPSPMEGARVV
binding: binds
